Protein sequences, listed by entry. Tags and fused reporters are not part of them.
UniProt Q39255: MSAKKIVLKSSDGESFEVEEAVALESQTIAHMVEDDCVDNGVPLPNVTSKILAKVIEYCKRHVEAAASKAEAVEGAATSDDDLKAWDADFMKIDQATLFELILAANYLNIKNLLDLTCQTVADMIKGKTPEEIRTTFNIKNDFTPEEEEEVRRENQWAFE

According to paper PMC9469108:

Molecular target: ARABIDOPSIS SKP1-LIKE1 (ASK1) with a C-terminal FLAG tag (Arabidopsis thaliana) (UniProt Q39255)
Test: affinity purification with mass spectrometry; Co-IP with an anti-FLAG antibody from lysates of inflorescences (closed buds and young flowers) of ask1-1 plants complemented with ASK1:ASK1-FLAG; SDS-PAGE gel slices, trypsin digestion, LC-MS/MS; four independent experiments

- binding: binds
B1: SKIP22 (protein, UniProt Q9ZUB8 1-475)
chain: MKLRLRHHETRETLKLELADADTLHDLRRRINPTVPSSVHLSLNRKDELITPSPEDTLRSLGLISGDLIYFSLEAGESSNWKLRDSETVASQSESNQTSVHDSIGFAEVDVVPDQAKSNPNTSVEDPEGDISGMEGPEPMDVEQLDMELAAAGSKRLSEPFFLKNILLEKSGDTSELTTLALSVHAVMLESGFVLLNHGSDKFNFSKELLTVSLRYTLPELIKSKDTNTIESVSVKFQNLGPVVVVYGTVGGSSGRVHMNLDKRRFVPVIDLVMDTSTSDEEGSSSIYREVFMFWRMVKDRLVIPLLIGICDKAGLEPPPCLMRLPTELKLKILELLPGVSIGNMACVCTEMRYLASDNDLWKQKCLEEVNNFVVTEAGDSVNWKARFATFWRQKQLAAASDTFWRQNQLGRRNISTGRSGIRFPRIIGDPPFTWFNGDRMHGSIGIHPGQSARGLGRRTWGQLFTPRCNLGGLN

Results are given in words; binding and its absence hold for the method and conditions named. Binding seen in cells or lysates may run through a third protein. A yes stands for co-enrichment or nearness to the bait. Other partners may have been found.
